# Source: publication PMC9788154
# Sequences of proteins named here, by UniProt entry; tags and fusion partners are left off.
# UniProt P68831: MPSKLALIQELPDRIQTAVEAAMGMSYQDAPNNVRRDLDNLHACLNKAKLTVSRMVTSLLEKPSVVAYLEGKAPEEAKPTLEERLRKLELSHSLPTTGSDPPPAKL
# UniProt Q66929: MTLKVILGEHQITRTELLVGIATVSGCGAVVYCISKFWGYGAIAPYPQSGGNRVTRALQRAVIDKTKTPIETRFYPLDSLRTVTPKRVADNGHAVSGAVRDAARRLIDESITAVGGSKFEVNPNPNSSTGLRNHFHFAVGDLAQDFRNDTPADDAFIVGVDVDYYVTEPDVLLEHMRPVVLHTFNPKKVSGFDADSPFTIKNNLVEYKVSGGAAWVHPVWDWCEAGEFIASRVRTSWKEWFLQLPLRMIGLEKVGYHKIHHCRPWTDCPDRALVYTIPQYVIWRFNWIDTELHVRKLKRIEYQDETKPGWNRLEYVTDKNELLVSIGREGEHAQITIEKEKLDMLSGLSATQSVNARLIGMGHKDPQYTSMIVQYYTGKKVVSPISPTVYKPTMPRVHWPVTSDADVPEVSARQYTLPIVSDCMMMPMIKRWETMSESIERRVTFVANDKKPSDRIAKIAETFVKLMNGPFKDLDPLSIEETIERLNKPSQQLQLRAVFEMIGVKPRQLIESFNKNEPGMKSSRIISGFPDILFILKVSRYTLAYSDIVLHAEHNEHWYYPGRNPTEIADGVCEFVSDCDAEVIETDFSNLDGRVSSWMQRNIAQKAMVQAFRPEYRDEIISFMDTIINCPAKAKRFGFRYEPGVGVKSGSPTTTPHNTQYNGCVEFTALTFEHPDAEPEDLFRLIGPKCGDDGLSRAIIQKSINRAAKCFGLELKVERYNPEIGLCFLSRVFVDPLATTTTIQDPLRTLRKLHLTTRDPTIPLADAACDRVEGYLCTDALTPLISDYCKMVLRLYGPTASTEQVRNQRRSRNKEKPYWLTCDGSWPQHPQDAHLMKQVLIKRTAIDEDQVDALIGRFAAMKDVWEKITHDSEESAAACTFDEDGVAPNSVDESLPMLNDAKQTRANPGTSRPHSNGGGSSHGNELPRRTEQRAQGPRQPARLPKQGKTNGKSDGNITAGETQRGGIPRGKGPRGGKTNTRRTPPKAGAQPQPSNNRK
# Results are given in words; binding and its absence hold for the method and conditions named. Binding seen in cells or lysates may run through a third protein. Some entries that bind do so weakly or less than the wild type.
# How the values were obtained:
# [1] = molecular target: Flock House nodavirus (FHV) protein B2 (Flock House nodavirus (FHV)) (UniProt P68831); assay: co-IP
# [2] = molecular target: Flock House nodavirus (FHV) protein A (Flock House nodavirus (FHV)) (UniProt Q66929); assay: co-IP
Substance,binding [1],binding [2]
Flock House nodavirus (FHV) protein A (from UniProt Q66929 1-998),binds,
Flock House nodavirus (FHV) protein B2 (from UniProt P68831 1-106),,binds
